From the supplement of paper PMC6411743
± gives the standard deviation of the averaged measurements. Only a part is listed here, and it is no random draw. Small differences around the control level are noise.

Amino acid sequences for entries named in this document (tags omitted). A change or cut given only in a name is not applied to a line headed by its entry.
UniProt Q6AI12: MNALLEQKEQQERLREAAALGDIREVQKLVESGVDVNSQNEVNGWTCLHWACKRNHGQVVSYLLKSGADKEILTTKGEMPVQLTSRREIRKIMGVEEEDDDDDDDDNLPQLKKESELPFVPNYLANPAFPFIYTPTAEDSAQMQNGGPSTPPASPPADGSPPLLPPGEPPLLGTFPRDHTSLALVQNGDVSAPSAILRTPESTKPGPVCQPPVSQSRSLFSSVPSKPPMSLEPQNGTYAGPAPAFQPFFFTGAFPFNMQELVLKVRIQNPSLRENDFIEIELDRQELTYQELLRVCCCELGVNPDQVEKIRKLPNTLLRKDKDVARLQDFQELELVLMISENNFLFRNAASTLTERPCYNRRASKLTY
UniProt O43903, whole entry: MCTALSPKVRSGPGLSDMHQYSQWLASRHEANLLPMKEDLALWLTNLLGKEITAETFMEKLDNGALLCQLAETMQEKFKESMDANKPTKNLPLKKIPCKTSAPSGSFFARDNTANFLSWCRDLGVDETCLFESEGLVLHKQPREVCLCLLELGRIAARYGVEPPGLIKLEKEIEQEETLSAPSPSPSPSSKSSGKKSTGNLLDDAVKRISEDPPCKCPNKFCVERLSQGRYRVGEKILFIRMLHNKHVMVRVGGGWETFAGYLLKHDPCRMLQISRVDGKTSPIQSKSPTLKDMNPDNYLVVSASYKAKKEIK
UniProt O43293: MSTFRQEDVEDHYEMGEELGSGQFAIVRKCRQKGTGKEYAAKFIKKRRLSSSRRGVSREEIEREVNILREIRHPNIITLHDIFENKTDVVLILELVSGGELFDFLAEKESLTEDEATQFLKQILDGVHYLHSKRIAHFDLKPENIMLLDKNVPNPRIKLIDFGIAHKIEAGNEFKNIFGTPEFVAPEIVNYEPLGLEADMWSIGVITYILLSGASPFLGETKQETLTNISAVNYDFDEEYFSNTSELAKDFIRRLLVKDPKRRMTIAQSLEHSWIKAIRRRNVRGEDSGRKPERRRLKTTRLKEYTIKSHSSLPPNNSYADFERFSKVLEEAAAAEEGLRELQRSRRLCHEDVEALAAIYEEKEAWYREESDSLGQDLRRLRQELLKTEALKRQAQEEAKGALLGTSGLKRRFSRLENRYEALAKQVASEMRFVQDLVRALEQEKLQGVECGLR
UniProt O43159: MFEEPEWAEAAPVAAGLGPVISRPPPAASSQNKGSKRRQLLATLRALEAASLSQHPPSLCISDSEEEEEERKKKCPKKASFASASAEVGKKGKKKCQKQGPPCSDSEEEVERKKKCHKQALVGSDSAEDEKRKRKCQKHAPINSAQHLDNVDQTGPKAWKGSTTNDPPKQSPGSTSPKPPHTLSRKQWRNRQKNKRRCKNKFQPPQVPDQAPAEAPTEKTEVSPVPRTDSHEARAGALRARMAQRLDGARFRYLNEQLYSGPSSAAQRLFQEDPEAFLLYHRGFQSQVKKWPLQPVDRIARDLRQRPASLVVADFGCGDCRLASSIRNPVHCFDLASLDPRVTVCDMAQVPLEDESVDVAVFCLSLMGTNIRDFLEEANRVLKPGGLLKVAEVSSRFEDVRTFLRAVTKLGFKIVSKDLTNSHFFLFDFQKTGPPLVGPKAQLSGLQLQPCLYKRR
UniProt O00629, whole entry: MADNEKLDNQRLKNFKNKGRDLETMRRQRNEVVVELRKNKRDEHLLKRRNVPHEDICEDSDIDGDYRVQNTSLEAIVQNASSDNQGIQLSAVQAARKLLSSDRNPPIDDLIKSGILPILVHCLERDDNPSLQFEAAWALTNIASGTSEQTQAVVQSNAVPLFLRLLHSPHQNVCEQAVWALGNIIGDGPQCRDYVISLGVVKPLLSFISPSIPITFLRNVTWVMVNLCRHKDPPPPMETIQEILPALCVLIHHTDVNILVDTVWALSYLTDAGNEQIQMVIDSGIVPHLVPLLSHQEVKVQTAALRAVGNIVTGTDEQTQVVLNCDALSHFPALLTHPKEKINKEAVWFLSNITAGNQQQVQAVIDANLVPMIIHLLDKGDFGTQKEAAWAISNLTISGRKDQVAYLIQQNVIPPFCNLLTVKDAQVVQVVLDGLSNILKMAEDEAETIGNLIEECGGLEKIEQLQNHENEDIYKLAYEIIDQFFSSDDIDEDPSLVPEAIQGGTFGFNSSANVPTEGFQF
UniProt Q96DM3: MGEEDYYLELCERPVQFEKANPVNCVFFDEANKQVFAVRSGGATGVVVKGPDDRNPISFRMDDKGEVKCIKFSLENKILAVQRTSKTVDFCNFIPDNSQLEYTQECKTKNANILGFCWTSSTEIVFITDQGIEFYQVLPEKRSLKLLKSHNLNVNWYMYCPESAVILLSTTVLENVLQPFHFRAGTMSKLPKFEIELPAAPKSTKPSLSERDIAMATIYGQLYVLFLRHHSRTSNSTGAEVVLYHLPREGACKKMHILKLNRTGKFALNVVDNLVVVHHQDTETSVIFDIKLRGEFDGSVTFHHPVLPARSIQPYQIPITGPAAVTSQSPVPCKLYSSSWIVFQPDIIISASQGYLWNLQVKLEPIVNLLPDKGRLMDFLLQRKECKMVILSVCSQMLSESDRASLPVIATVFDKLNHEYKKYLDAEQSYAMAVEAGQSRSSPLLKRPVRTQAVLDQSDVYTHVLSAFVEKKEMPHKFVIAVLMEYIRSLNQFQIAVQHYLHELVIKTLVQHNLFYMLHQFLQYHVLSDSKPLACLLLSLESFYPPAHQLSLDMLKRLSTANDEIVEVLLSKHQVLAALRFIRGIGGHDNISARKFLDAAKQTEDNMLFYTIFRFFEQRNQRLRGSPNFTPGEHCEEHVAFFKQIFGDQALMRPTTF
UniProt O00483, whole entry: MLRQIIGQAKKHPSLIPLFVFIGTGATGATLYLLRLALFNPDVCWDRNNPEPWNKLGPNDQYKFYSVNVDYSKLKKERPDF
UniProt O14745: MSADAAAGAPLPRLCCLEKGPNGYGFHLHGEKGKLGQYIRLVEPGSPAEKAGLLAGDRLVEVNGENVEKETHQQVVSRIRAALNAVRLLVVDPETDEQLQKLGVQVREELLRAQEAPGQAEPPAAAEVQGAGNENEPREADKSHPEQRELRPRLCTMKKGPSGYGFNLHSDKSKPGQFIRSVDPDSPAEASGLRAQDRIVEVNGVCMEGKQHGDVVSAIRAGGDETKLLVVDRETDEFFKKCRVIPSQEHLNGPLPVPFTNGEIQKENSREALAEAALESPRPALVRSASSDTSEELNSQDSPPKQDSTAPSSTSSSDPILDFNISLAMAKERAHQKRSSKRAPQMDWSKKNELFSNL
UniProt O43615: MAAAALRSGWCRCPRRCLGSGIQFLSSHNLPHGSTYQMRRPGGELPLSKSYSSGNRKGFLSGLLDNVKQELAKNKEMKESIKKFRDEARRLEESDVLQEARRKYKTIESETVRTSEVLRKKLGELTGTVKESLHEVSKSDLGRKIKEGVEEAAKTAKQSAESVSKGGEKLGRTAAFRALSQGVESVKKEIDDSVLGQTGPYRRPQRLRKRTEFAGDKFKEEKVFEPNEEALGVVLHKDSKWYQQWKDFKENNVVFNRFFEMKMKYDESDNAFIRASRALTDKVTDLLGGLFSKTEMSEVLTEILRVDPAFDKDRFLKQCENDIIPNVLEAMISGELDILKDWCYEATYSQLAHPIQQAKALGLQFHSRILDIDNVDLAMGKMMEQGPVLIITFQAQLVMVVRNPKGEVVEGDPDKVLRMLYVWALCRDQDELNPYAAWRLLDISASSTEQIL
UniProt O14737: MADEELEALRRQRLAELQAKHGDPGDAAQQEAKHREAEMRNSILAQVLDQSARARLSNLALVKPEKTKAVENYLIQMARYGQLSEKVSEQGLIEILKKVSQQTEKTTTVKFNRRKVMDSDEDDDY
UniProt O43617, whole entry: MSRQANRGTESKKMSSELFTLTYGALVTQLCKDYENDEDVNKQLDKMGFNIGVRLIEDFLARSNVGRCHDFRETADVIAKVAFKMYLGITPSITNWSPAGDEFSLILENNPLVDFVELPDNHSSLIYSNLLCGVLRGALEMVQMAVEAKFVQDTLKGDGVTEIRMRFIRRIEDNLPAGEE
UniProt O15525: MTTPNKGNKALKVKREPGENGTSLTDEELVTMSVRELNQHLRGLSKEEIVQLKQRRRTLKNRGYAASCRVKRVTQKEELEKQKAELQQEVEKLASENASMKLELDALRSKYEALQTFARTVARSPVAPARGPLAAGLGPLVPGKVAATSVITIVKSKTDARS
UniProt P36776: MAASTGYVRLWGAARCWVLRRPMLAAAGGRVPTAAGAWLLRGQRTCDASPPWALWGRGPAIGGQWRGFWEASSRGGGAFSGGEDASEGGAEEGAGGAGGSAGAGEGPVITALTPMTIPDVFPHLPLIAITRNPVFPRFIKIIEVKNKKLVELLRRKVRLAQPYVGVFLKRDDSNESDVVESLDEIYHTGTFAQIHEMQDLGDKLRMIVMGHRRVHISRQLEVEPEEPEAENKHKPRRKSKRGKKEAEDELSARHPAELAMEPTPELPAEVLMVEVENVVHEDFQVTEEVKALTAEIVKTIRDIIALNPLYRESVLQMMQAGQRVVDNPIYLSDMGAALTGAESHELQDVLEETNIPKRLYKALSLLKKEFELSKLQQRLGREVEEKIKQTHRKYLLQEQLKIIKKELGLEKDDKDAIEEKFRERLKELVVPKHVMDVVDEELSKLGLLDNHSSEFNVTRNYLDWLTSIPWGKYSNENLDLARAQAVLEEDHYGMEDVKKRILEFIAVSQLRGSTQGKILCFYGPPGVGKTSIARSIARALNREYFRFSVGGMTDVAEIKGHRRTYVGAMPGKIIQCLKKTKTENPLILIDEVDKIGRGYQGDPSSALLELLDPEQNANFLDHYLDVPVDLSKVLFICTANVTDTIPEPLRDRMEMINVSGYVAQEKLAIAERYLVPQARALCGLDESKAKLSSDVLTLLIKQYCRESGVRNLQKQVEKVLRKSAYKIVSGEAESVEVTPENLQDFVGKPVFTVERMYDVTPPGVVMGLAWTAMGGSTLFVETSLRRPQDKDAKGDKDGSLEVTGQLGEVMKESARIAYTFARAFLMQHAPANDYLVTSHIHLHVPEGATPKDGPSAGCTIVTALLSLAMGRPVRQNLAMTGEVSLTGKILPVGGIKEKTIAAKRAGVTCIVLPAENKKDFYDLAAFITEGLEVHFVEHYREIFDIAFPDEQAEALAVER
UniProt O00442: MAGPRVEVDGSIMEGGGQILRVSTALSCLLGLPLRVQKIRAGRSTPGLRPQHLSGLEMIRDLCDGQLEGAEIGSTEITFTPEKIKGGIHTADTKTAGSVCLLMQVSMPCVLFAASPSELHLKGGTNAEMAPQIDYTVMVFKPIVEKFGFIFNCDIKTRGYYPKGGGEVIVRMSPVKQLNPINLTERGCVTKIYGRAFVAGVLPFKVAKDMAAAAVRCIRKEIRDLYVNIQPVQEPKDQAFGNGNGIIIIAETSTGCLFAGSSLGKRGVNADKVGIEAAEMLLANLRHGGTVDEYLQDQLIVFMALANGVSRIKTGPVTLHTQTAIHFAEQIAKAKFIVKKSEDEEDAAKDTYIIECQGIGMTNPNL
UniProt O15269: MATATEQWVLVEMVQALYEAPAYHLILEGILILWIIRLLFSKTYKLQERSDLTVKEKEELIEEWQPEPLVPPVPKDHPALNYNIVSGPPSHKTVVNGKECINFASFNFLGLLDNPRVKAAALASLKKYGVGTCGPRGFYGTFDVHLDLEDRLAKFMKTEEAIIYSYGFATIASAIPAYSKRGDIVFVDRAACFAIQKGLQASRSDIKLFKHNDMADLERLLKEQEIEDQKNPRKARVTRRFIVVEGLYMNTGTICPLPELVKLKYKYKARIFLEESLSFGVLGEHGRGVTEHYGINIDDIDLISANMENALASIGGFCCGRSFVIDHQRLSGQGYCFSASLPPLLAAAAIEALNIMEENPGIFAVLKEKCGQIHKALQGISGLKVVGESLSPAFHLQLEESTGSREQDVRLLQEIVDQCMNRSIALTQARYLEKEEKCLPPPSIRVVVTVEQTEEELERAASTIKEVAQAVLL
UniProt O43852: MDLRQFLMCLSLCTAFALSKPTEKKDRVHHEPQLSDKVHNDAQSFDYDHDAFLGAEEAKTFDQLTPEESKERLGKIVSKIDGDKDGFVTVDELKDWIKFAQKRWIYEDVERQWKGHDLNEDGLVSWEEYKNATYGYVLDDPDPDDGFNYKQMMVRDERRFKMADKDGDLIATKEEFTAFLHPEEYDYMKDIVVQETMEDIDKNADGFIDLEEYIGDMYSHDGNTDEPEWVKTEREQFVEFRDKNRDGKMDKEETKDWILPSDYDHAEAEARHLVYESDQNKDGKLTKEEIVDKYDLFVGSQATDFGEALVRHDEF
UniProt O75264: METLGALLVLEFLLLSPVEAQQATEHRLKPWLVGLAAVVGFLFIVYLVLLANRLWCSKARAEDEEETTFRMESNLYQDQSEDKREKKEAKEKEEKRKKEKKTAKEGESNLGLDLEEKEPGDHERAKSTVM
UniProt O43324: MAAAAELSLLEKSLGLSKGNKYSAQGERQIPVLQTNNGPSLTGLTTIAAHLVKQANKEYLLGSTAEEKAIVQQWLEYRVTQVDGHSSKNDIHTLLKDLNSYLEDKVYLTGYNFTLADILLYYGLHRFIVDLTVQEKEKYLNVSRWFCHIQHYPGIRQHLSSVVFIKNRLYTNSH

Compound: Nc1ncnc2c1ncn2[C@@H]1O[C@H](COP(=O)(O)OP(=O)(O)NP(=O)(O)O)[C@@H](O)[C@H]1O [adenylyl imidodiphosphate]
Assay: NP40-soluble protein abundance relative to vehicle (solubility fold change) (ratio); higher = more soluble protein in presence of AMP-PNP
Summary of the method: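 Eight concentrations, 0.1 to 10 mM, were tested on Jurkat crude lysate for 10 min at room temperature and then 3 min at 37 °C, in three independent experiments. The lysate was solubilised with 0.8% NP40 and benzonase, ultracentrifuged, and the supernatant TMT-labelled for LC-MS/MS. Each value is the fold change against the detergent-processed vehicle in its own replicate, from vsn-normalised intensities.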

Target	NP40-soluble protein abundance (concentration: 0.1mM)	NP40-soluble protein abundance (concentration: 0.5mM)
UniProt O43829	1.01 ± 0.042	1.03 ± 0.036
K7ERW4 and related entries (UniProt Q6AI12)	0.988 ± 0.014	0.977 ± 0.044
UniProt O15042-2|O15042	1.05 ± 0.051	1.08 ± 0.039
UniProt O43903	1.02 ± 0.015	1.04 ± 0.045
DAPK3 (UniProt O43293)	1.02 ± 0.011	0.976 ± 0.018
UniProt O43439-5	0.998 ± 0.025	0.994 ± 0.021
UniProt O43159	1.015 ± 0.0095	1.01 ± 0.016
ZBTB24 (UniProt O43167)	0.995 ± 0.017	1.015 ± 0.0043
M0R3D4 and related entries (UniProt Q9UI14)	0.983 ± 0.03	1.02 ± 0.034
KPNA4 (UniProt O00629)	1.04 ± 0.015	1.05 ± 0.017
M0QYZ2 and related entries (UniProt P53680)	1.04 ± 0.052	0.953 ± 0.12
K7ERT1 and related entries (UniProt O00273)	1.01 ± 0.035	1 ± 0.022
RFXANK (UniProt O14593)	0.983 ± 0.012	1.002 ± 0.0079
GAK (UniProt O14976)	0.9858 ± 0.006	0.9709 ± 0.0091
K7ENL9 and related entries (UniProt Q96DM3)	0.97 ± 0.032	0.968 ± 0.055
NDUFA4 (UniProt O00483)	1.02 ± 0.076	0.981 ± 0.035
UniProt O43379-4|O43379	1 ± 0.024	1 ± 0.018
UniProt O14776 and related entries	0.987 ± 0.025	1.009 ± 0.0062
UniProt O43318-2|O43318	0.984 ± 0.032	0.969 ± 0.018
K7EK00 and related entries (UniProt Q96ND0)	0.966 ± 0.038	1 ± 0.045

In a second layout: entries from further up
ZBTB24 (UniProt O43167)
  NP40-soluble protein abundance (concentration: 0.1mM): 0.995 ± 0.017
  NP40-soluble protein abundance (concentration: 0.5mM): 1.015 ± 0.0043
M0R3D4 and related entries (UniProt Q9UI14)
  NP40-soluble protein abundance (concentration: 0.1mM): 0.983 ± 0.03
  NP40-soluble protein abundance (concentration: 0.5mM): 1.02 ± 0.034
KPNA4 (UniProt O00629)
  NP40-soluble protein abundance (concentration: 0.1mM): 1.04 ± 0.015
  NP40-soluble protein abundance (concentration: 0.5mM): 1.05 ± 0.017
M0QYZ2 and related entries (UniProt P53680)
  NP40-soluble protein abundance (concentration: 0.1mM): 1.04 ± 0.052
  NP40-soluble protein abundance (concentration: 0.5mM): 0.953 ± 0.12

Later entries:

Target	NP40-soluble protein abundance (concentration: 0.1mM)	NP40-soluble protein abundance (concentration: 0.5mM)
SLC9A3R1 (UniProt O14745)	0.979 ± 0.023	0.985 ± 0.04
PFAS (UniProt O15067)	1.002 ± 0.009	1.003 ± 0.0034
UniProt O14646 and related entries	0.945 ± 0.033	0.988 ± 0.058
TIMM44 (UniProt O43615)	0.9757 ± 0.0032	0.971 ± 0.042
PDCD5 (UniProt O14737)	0.981 ± 0.043	1.01 ± 0.053
TRIM38 (UniProt O00635)	1.006 ± 0.0046	1.03 ± 0.036
ARPC5 (UniProt O15511)	1.04 ± 0.081	1.15 ± 0.21
UniProt O15446 and related entries	1.02 ± 0.058	1.007 ± 0.0055
K7ELQ0 and related entries (UniProt Q9BYD3)	0.997 ± 0.019	1.02 ± 0.035
UniProt O00422 and related entries	1.07 ± 0.086	1.05 ± 0.06
UniProt O43617 and related entries	1.01 ± 0.056	0.948 ± 0.12
K7ES11 and related entries (UniProt Q9C0C9)	0.971 ± 0.019	0.996 ± 0.023
MAFG (UniProt O15525)	0.974 ± 0.043	0.978 ± 0.087
UniProt O14617 and related entries	0.9942 ± 0.0039	1.02 ± 0.012
CDIPT (UniProt O14735)	1.03 ± 0.018	0.984 ± 0.031
K7EKE6 and related entries (UniProt P36776)	0.997 ± 0.015	0.967 ± 0.044
UniProt O15169 and related entries	1.024 ± 0.0021	1.06 ± 0.035
CLGN (UniProt O14967)	0.997 ± 0.039	1.02 ± 0.043
UQCRQ (UniProt O14949)	0.981 ± 0.073	1.05 ± 0.061
UniProt O00522 and related entries	0.997 ± 0.013	0.995 ± 0.026

Target	NP40-soluble protein abundance (concentration: 0.1mM)	NP40-soluble protein abundance (concentration: 0.5mM)
ADAM10 (UniProt O14672)	0.967 ± 0.031	0.973 ± 0.03
OGT (UniProt O15294)	0.9991 ± 0.0039	0.982 ± 0.019
UniProt O00442	1.04 ± 0.013	1.01 ± 0.019
M0QYS1 and related entries (UniProt P40429)	1.04 ± 0.037	1.01 ± 0.012
HNRNPR (UniProt O43390)	1.04 ± 0.068	1.03 ± 0.094
SPTLC1 (UniProt O15269)	1 ± 0.029	0.9813 ± 0.005
TRAFD1 (UniProt O14545)	1.004 ± 0.0092	0.964 ± 0.034
UniProt O43852 and related entries	0.955 ± 0.022	1.01 ± 0.034
UniProt O43310 and related entries	1.03 ± 0.014	1.05 ± 0.034
K7ERP1 and related entries (UniProt Q9GZN7)	0.972 ± 0.043	1 ± 0.016
CHMP2A (UniProt O43633)	0.975 ± 0.03	0.994 ± 0.024
TXNL1 (UniProt O43396)	0.996 ± 0.027	0.973 ± 0.058
K7EKM7 (UniProt O75264)	1.01 ± 0.018	1.05 ± 0.031
EEF1E1 (UniProt O43324)	1.03 ± 0.011	1.01 ± 0.025
NCK2 (UniProt O43639)	1.02 ± 0.03	0.977 ± 0.0078
ANKRD28 (UniProt O15084)	1.03 ± 0.014	0.984 ± 0.041
EXOC5 (UniProt O00471)	0.996 ± 0.024	0.991 ± 0.014
PDLIM1 (UniProt O00151)	0.973 ± 0.016	0.995 ± 0.043
PPM1G (UniProt O15355)	0.976 ± 0.025	1.02 ± 0.063
K7EJL1 and related entries (UniProt Q9BXS5)	1.01 ± 0.013	0.972 ± 0.087
